Experimental data: PMC10425521, “Crosstalk between glucocorticoid and mineralocorticoid receptors boosts glucocorticoid-induced killing of multiple myeloma cells” (Cellular and Molecular Life Sciences: CMLS, 2023)
No constants are given. Whether binding was seen depends on the method and setting. Binding seen in cells or lysates may run through a third protein. Some binding calls cover weakened binding; strength is not graded here. Values belong to the molecule of their own block, whether it stands above or below them.

Chains of the proteins cited; added tags and fusions are not shown.
UniProt P08235: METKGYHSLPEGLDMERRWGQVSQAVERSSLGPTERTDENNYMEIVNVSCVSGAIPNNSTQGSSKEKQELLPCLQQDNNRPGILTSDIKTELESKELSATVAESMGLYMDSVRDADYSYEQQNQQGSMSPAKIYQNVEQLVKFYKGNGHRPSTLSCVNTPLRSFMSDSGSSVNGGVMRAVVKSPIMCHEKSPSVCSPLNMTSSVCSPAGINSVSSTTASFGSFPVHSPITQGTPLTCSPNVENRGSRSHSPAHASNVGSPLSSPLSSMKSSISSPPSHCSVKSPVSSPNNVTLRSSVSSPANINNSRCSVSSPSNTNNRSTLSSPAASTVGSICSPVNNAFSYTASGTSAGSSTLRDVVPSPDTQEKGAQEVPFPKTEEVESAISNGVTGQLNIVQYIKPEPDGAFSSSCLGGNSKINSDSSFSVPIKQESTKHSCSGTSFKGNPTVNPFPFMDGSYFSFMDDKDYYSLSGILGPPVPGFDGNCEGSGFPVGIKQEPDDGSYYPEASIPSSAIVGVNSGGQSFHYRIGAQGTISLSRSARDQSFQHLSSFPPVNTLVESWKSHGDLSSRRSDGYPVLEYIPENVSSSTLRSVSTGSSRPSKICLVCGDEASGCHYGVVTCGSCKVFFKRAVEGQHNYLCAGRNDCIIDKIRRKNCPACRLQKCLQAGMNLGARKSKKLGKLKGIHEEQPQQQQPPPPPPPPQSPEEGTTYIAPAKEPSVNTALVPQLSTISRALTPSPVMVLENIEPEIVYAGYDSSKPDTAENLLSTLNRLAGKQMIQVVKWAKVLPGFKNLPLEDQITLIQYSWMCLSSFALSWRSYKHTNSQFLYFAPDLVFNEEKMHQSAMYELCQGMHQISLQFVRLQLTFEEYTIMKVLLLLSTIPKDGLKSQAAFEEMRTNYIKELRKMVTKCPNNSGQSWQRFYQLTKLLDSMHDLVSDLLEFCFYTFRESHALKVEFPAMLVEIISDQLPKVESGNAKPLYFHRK

Key:
[1] = biological target: LgBiT-MR (mineralocorticoid receptor with LgBiT at the N-terminus) (UniProt P08235); assay: split reporter; NanoBiT in intact HEK293T cells, Dex (10^-6 M) added after baseline, luminescence over 60 min, normalised to baseline and given as fold versus solvent
[2] = biological target: LgBiT-MR (mineralocorticoid receptor with LgBiT at the N-terminus) (UniProt P08235); assay: condition: only with Spi (10^-5 M) added to Dex (10^-6 M); split reporter; NanoBiT in intact HEK293T cells, Dex (10^-6 M) together with Spi (10^-5 M) added after baseline, luminescence over 60 min, normalised to baseline and given as fold versus solvent
[3] = biological target: glucocorticoid receptor (GR), endogenous in myeloma cells (human (endogenous in MM1.S and OPM-2)) (UniProt P04150); assay: co-IP; endogenous GR immunoprecipitated with anti-GR G5 from MM1.S or OPM-2 lysates (NP-40 lysis buffer: 50 mM Tris-HCl pH 8.0, 150 mM NaCl, 1% NP-40; 4 °C), blot with anti-MR 6G1; cells treated 30 min with solvent, Dex (10^-6 M), Spi (10^-5 M) or Dex-Spi
[4] = biological target: LgBiT-MR (mineralocorticoid receptor with LgBiT at the N-terminus) (UniProt P08235); assay: split reporter; NanoBiT in intact HEK293T cells, Spi (10^-5 M) alone added after baseline, luminescence over 60 min, normalised to baseline and given as fold versus solvent

binding [1]: binds
binding [2]: no binding
Molecule: MR-SmBiT (mineralocorticoid receptor with SmBiT at the C-terminus) (from UniProt P08235 1-984)

binding [3]: binds
Molecule: mineralocorticoid receptor (MR), endogenous in myeloma cells (from UniProt P08235 1-984)

B1: GR-SmBiT (glucocorticoid receptor with SmBiT at the C-terminus) (receptor, UniProt P04150 1-777, looked up)
chain: MDSKESLTPGREENPSSVLAQERGDVMDFYKTLRGGATVKVSASSPSLAVASQSDSKQRRLLVDFPKGSVSNAQQPDLSKAVSLSMGLYMGETETKVMGNDLGFPQQGQISLSSGETDLKLLEESIANLNRSTSVPENPKSSASTAVSAAPTEKEFPKTHSDVSSEQQHLKGQTGTNGGNVKLYTTDQSTFDILQDLEFSSGSPGKETNESPWRSDLLIDENCLLSPLAGEDDSFLLEGNSNEDCKPLILPDTKPKIKDNGDLVLSSPSNVTLPQVKTEKEDFIELCTPGVIKQEKLGTVYCQASFPGANIIGNKMSAISVHGVSTSGGQMYHYDMNTASLSQQQDQKPIFNVIPPIPVGSENWNRCQGSGDDNLTSLGTLNFPGRTVFSNGYSSPSMRPDVSSPPSSSSTATTGPPPKLCLVCSDEASGCHYGVLTCGSCKVFFKRAVEGQHNYLCAGRNDCIIDKIRRKNCPACRYRKCLQAGMNLEARKTKKKIKGIQQATTGVSQETSENPGNKTIVPATLPQLTPTLVSLLEVIEPEVLYAGYDSSVPDSTWRIMTTLNMLGGRQVIAAVKWAKAIPGFRNLHLDDQMTLLQYSWMFLMAFALGWRSYRQSSANLLCFAPDLIINEQRMTLPCMYDQCKHMLYVSSELHRLQVSYEEYLCMKTLLLLSSVPKDGLKSQELFDEIRMTYIKELGKAIVKREGNSSQNWQRFYQLTKLLDSMHEVVENLLNYCFQTFLDKTMSIEFPEMLAEIITNQIPKYSNGNIKKLLFHQK
notes: glucocorticoid receptor (GR, NR3C1); NanoBiT fusion; also called pGR-SmBiT; source: HEK293T, transfected (calcium phosphate), in intact cells; not shown: SmBiT, C-terminal, kept
binding [4]: no binding (condition: Spi (10^-5 M) alone, without Dex)
